Structures can show the parent of a compound that is named as a salt. Whole data set: some 1,100 compounds, median “Wnt reporter firefly/Renilla luciferase ratio relative to plate median” near 1.1, cut for the highest 2% near 1.6. Only a part is listed here, and it is no random draw.
Test system: HEK293T (UBE3A T485A transfected, BAR Wnt reporter)
Experiment: Wnt reporter firefly/Renilla luciferase ratio relative to plate median (fold (linear ratio)); higher = more Wnt/beta-catenin reporter activation
Details: 24 h
How it was run: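 HEK293T cells were grown in DMEM with 10% FBS at 37°C and 5% CO2, at 4500 cells/well in white 384-well plates. They were transfected with a BAR firefly luciferase Wnt reporter, TK-Renilla and an expression plasmid using Fugene 6. Four hours later, robots dosed the chemicals at 0.01–100 uM for 24 h, followed by Dual-Glo luciferase readout. Wnt activity (firefly/Renilla ratio) and cell health (raw Renilla) were median-centred per plate, averaged over four biological replicates.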

SMILES | Wnt reporter firefly/Renilla luciferase ratio (concentration: 100 uM) | Wnt reporter firefly/Renilla luciferase ratio (concentration: 0.1 uM) | Wnt reporter firefly/Renilla luciferase ratio (concentration: 1 uM) | Wnt reporter firefly/Renilla luciferase ratio (concentration: 10 uM) | Wnt reporter firefly/Renilla luciferase ratio (concentration: 0.01 uM)
CC1(C)C(=O)N(Cl)C(=O)N1Cl [1,3-Dichloro-5,5-dimethylhydantoin] | 1.63 |  |  |  | 
O=C(c1ccccc1)C1CCCCC1 [Cyclohexylphenylketone] | 1.51 | 1.08 | 0.971 | 1.24 | 
CN1CCC[C@H]1c1cccnc1 [Nicotine] | 1.18 | 1.15 | 1.19 | 1.12 | 
CCCCN1C(=O)[C@@H]([C@H](O)C2CCCCC2)NC(=O)C12CCN(Cc1ccc(Oc3ccc(C(=O)O)cc3)cc1)CC2.Cl [Aplaviroc hydrochloride] | 1.09 | 1.15 | 1.26 | 1.03 | 
O=C(O)CC(O)C(=O)O (configuration not stated) [Malic acid] | 0.783 | 0.767 | 0.818 | 0.707 | 
O=C1CCC(N2C(=O)c3ccccc3C2=O)C(=O)N1 (configuration not stated) [Thalidomide] | 1.26 | 0.974 | 1.1 | 1.2 | 
CCCOc1sc(C(=O)N2CCC(c3cc(CN)ccc3F)CC2)c(C)c1Br.Cl | 0.757 | 0.728 | 1.11 | 0.966 | 
Cc1cnc(-c2cnc(NCCNc3ccc(C#N)cn3)nc2-c2ccc(Cl)cc2Cl)[nH]1 |  |  | 5.86 | 128 | 
CCOc1ccc2[nH]cc(C(=O)NCc3ccccc3)c(=O)c2n1 | 0.189 | 1.08 | 0.96 | 0.631 | 
CCOC(=O)NCCOc1ccc(Oc2ccccc2)cc1 [Fenoxycarb] | 0.32 | 1.32 | 1.17 | 0.911 | 1.13
CCCCOC(=O)CC(CC(=O)OCCCC)(OC(C)=O)C(=O)OCCCC [Acetyl tributyl citrate] | 1.1 | 0.974 | 1.19 | 0.975 | 
Cc1c(C(=O)O)c(O)cc2c1C(=O)c1c(O)c([C@@H]3O[C@H](CO)[C@@H](O)[C@H](O)[C@H]3O)c(O)c(O)c1C2=O [Carminic acid] |  | 0.9 | 1.02 | 1.08 | 
CC#C[C@]1(O)CC[C@H]2[C@@H]3CCC4=CC(=O)CCC4=C3[C@@H](c3ccc(N(C)C)cc3)C[C@@]21C [Mifepristone] | 0.0932 | 0.957 | 0.893 | 0.624 | 
COC(C)COC(C)COC(C)CO (configuration not stated) [Tripropylene glycol monomethyl ether] | 0.939 | 0.768 | 0.877 | 0.851 | 
O=C(O)c1cc(/N=N/c2ccc(S(=O)(=O)Nc3ccccn3)cc2)ccc1O [Sulfasalazine] | 3.01 | 0.944 | 0.993 | 1.33 | 
Nc1cccc(N)c1 [1,3-Benzenediamine] | 0.731 | 1.06 | 0.971 | 0.946 | 

SMILES | Wnt reporter firefly/Renilla luciferase ratio (concentration: 100 uM) | Wnt reporter firefly/Renilla luciferase ratio (concentration: 0.1 uM) | Wnt reporter firefly/Renilla luciferase ratio (concentration: 1 uM) | Wnt reporter firefly/Renilla luciferase ratio (concentration: 10 uM) | Wnt reporter firefly/Renilla luciferase ratio (concentration: 0.01 uM)
CC(C)=CCCC(C)CCO (configuration not stated) [Citronellol] | 1.64 |  |  |  | 
C=C(C)C(N)=O [Methacrylamide] | 1.25 | 1.22 | 1.04 | 1.05 | 
CCN(C(=O)c1cc(C)cc(OC[C@H](C)Nc2ccncc2)c1)C(C)C.Cc1ccc(S(=O)(=O)O)cc1 | 0.226 | 0.881 | 1.12 | 1.08 | 
Nc1ccccc1N [1,2-Phenylenediamine] | 0.431 | 1.28 | 1.1 | 1.12 | 
CN(C)c1ccc(C(=C2C=CC(=[N+](C)C)C=C2)c2ccc(N(C)C)cc2)cc1.[Cl-] [Gentian Violet] |  | 0.538 |  |  | 
O=c1[nH]c2ccc(S(=O)CCN3CCC(Cc4ccc(F)cc4)CC3)cc2o1 (configuration not stated) [Besonprodil] | 0.313 | 1.11 | 0.965 | 0.993 | 
CCOC(=O)COc1cc(-n2ncc(C(F)(F)F)c(C)c2=O)c(F)cc1Cl [Flufenpyr-ethyl] | 1.47 | 1.28 | 1.01 | 1.48 | 1.17
O=C(OCCCCCOC(=O)c1ccccc1)c1ccccc1 [Pentane-1,5-diyl dibenzoate] | 0.644 | 0.256 | 0.526 | 0.25 | 
CC1CCC(NC(=O)N(CCCl)N=O)CC1 (configuration not stated) [Semustine] | 0.475 | 0.921 | 0.986 | 0.864 | 1.09
CCCCCCCC1CCC(=O)O1 (configuration not stated) [5-Heptyldihydro-2(3H)-furanone] | 1.04 | 1.05 | 1.05 | 0.952 | 
CN(C)C=O [N,N-Dimethylformamide] | 1.17 | 1.04 | 1.11 | 1.16 | 
O.O=C1[N-]S(=O)(=O)c2ccccc21.[Na+] [Sodium saccharin hydrate] | 1.45 | 1.03 | 1.01 | 1.25 | 
Cc1c(C)c2c(c(C)c1O)CCC(C)(CCCC(C)CCCC(C)CCCC(C)C)O2 (stereo not drawn) [Vitamin E (alpha-tocopherol)] | 1.51 | 1.04 | 1.18 | 0.99 | 0.793
O=C1c2c(O)cccc2Cc2cccc(O)c21 [Anthralin] | 0.798 | 0.825 | 1.04 | 1.46 | 
CC(C)(C)C(O)C(Cc1ccc(Cl)cc1)n1cncn1 (configuration not stated) [Paclobutrazol] | 1.29 | 1.07 | 1.14 | 1.28 | 0.837

Two neighbouring entries already listed:
SMILES | Wnt reporter firefly/Renilla luciferase ratio (concentration: 100 uM) | Wnt reporter firefly/Renilla luciferase ratio (concentration: 0.1 uM) | Wnt reporter firefly/Renilla luciferase ratio (concentration: 1 uM) | Wnt reporter firefly/Renilla luciferase ratio (concentration: 10 uM) | Wnt reporter firefly/Renilla luciferase ratio (concentration: 0.01 uM)
O=c1[nH]c2ccc(S(=O)CCN3CCC(Cc4ccc(F)cc4)CC3)cc2o1 (configuration not stated) [Besonprodil] | 0.313 | 1.11 | 0.965 | 0.993 | 
CCOC(=O)COc1cc(-n2ncc(C(F)(F)F)c(C)c2=O)c(F)cc1Cl [Flufenpyr-ethyl] | 1.47 | 1.28 | 1.01 | 1.48 | 1.17

Source: the supplement of paper PMC9254222
